One experiment addresses Rpb11-TT (S. cerevisiae) (UniProt P38902). Nature of the experiment: co-IP; single-step affinity purification of a Tap-tagged RNA Pol II subunit from 4 mg of total protein of wild-type or not5Δ cells; eluate on Native PAGE 3-12% Bis-Tris gels or SDS-PAGE, western blot with anti-CBP or anti-Rpb1. For orientation: In western blotting, separated proteins are transferred to a membrane and probed.

Chains of the proteins cited; added tags and fusions are not shown.
UniProt Q12464: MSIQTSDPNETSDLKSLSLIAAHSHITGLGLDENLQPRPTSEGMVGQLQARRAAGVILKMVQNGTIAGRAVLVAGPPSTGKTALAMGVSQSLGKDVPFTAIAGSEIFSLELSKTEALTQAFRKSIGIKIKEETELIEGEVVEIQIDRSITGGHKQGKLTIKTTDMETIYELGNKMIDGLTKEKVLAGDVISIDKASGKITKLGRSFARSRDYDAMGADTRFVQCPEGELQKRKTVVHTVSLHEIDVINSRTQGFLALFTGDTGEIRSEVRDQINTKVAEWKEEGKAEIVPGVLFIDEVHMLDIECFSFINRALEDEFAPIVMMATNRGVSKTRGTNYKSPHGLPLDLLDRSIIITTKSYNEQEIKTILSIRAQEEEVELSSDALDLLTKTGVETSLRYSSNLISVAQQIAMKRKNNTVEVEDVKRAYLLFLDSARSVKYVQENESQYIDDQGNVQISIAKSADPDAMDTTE
UniProt P25655: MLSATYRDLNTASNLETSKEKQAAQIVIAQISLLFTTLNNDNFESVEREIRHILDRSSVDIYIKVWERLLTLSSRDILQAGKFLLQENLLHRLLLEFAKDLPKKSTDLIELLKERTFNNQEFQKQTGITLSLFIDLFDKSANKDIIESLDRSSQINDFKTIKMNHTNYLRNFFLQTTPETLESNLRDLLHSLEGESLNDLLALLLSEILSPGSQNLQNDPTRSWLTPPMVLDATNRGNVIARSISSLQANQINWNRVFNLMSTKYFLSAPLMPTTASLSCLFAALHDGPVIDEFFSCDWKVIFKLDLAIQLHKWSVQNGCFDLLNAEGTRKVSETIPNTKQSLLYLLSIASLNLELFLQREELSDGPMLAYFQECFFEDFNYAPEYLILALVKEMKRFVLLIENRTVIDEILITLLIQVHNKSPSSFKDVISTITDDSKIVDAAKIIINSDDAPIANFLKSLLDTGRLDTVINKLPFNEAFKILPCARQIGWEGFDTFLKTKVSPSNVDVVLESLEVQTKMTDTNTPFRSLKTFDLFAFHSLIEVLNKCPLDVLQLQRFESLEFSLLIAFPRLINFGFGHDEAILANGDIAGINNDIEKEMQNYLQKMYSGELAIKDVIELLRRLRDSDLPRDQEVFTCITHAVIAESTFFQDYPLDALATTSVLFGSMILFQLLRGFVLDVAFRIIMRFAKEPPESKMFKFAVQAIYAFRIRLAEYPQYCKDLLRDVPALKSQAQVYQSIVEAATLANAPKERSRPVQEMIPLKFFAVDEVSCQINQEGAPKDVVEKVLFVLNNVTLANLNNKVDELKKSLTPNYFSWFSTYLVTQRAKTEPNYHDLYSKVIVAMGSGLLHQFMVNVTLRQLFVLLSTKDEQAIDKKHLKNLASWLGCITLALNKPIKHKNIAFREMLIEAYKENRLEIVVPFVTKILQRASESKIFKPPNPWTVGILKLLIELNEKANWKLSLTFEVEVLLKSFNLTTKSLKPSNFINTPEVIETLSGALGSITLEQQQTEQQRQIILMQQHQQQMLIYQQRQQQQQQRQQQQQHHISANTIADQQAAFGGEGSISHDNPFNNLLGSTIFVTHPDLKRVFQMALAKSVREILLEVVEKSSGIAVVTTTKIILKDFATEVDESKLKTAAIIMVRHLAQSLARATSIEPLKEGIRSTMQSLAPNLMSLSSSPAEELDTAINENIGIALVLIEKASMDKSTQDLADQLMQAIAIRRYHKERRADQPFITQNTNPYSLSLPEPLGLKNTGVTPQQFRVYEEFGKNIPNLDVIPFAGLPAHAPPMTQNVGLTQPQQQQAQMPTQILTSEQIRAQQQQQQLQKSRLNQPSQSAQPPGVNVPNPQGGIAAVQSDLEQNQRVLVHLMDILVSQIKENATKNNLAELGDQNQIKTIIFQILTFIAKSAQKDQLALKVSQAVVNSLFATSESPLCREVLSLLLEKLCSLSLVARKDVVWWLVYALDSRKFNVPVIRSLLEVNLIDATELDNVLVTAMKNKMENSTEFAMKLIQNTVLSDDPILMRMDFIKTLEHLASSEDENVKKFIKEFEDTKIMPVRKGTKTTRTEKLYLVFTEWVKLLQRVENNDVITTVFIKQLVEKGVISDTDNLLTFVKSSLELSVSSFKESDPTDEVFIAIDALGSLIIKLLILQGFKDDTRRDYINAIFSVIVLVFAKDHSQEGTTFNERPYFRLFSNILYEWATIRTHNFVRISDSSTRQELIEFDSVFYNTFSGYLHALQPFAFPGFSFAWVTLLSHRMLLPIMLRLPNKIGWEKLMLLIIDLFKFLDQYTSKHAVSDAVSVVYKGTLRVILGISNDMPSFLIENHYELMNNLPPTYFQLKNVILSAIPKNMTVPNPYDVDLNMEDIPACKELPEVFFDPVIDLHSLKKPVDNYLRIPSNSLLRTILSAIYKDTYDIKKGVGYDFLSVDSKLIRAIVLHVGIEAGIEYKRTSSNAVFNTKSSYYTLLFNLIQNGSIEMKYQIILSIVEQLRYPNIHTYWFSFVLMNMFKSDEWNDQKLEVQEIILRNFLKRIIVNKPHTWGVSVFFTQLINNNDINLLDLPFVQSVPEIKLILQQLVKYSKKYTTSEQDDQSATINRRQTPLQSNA
UniProt P08518: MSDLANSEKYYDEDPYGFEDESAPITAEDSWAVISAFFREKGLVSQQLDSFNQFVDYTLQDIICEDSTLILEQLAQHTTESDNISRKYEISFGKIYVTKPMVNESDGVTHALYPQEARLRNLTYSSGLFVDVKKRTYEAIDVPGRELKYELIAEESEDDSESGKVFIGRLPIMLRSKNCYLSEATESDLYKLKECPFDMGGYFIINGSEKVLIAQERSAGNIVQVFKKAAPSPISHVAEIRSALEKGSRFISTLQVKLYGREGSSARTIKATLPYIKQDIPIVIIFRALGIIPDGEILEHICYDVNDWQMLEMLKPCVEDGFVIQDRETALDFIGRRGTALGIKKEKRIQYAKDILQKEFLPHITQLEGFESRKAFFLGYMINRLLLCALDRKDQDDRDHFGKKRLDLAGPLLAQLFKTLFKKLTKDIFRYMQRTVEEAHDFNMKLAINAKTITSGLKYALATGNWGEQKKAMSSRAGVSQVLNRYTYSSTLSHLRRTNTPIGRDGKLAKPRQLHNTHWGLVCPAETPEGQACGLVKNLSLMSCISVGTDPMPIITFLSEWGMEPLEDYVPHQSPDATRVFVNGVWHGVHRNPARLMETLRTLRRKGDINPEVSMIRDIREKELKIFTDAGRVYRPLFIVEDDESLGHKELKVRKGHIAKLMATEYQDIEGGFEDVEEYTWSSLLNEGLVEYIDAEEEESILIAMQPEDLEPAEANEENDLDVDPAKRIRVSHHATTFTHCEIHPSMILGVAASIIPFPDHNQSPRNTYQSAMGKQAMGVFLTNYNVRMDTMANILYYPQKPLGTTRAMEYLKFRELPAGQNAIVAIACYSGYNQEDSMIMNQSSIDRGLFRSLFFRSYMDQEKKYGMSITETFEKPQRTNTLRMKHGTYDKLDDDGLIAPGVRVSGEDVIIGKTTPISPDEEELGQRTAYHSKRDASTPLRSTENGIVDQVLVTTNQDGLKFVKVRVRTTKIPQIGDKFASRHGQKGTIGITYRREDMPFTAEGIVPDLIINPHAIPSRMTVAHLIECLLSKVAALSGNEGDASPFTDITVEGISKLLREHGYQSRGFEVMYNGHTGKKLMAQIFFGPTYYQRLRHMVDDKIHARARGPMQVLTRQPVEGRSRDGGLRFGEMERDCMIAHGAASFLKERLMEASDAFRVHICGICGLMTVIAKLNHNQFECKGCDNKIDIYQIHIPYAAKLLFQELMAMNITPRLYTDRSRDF
UniProt P04050: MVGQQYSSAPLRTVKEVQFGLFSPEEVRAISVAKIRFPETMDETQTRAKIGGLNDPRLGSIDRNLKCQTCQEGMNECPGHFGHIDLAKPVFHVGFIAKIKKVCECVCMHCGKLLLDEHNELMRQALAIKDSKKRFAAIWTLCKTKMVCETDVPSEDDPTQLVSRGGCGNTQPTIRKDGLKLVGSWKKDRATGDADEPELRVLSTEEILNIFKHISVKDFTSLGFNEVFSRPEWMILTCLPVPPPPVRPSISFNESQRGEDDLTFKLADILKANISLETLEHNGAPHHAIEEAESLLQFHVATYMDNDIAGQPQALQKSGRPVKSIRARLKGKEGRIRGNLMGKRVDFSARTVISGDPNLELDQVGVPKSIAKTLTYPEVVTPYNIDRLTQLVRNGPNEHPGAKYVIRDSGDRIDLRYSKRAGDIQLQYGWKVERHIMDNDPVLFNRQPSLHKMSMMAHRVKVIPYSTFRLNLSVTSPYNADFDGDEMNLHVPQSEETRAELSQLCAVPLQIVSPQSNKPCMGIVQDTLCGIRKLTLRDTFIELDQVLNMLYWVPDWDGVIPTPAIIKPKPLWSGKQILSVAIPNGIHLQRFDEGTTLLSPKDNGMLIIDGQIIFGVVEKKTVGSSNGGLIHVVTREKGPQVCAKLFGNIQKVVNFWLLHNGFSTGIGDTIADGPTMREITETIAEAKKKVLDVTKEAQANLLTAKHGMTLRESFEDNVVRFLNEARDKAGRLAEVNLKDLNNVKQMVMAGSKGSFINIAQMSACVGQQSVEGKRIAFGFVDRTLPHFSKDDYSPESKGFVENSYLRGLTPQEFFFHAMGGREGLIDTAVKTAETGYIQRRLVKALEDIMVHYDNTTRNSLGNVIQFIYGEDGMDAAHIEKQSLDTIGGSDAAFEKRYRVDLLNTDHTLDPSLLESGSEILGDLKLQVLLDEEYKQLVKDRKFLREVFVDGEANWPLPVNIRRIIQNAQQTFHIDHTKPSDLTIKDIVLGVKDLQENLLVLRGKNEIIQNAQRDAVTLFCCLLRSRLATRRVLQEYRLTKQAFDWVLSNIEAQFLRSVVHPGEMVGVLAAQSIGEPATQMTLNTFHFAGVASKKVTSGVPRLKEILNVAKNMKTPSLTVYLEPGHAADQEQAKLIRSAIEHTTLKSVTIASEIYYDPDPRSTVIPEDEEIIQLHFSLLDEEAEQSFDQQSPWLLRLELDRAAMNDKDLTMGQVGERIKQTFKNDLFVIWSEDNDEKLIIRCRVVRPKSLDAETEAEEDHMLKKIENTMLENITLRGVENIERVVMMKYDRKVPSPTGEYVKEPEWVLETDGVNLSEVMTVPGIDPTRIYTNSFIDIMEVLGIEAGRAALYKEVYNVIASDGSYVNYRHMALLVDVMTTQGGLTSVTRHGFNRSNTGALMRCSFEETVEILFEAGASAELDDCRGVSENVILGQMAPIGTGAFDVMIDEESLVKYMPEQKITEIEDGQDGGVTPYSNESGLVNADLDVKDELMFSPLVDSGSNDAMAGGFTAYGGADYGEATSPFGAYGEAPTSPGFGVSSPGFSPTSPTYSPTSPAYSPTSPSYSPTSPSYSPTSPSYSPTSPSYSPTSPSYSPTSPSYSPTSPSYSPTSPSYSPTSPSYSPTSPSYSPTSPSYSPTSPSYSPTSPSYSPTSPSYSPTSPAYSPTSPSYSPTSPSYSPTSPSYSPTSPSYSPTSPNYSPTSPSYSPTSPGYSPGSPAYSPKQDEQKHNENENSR
UniProt P32497: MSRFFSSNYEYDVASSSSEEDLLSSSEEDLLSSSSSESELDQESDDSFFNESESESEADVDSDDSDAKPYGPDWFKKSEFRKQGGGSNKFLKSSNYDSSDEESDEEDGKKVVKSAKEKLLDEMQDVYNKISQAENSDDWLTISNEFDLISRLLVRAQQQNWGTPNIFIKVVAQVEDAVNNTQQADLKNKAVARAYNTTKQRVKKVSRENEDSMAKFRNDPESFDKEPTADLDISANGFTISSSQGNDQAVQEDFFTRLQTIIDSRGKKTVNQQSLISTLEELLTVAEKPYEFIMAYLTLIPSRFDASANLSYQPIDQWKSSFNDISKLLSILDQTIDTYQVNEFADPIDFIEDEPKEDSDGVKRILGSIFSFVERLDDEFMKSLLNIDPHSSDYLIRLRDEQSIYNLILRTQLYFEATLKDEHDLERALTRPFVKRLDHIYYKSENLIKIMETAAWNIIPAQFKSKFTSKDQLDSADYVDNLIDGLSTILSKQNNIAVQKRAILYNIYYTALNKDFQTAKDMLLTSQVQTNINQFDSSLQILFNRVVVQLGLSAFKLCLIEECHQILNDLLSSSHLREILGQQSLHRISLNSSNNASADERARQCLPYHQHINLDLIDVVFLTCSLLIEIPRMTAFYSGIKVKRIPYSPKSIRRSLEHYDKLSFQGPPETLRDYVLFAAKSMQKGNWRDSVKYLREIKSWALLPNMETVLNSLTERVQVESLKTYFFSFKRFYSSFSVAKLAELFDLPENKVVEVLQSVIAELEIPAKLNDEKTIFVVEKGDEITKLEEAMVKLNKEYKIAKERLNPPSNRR
UniProt P04456: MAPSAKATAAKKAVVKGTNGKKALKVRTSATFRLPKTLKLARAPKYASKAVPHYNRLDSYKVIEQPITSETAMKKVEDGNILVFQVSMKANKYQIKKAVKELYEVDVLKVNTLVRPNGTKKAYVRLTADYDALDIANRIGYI

Experiment [1] deals with T1, Tap-tagged Pih1 (S. cerevisiae) (UniProt P38768).
T1 sequence: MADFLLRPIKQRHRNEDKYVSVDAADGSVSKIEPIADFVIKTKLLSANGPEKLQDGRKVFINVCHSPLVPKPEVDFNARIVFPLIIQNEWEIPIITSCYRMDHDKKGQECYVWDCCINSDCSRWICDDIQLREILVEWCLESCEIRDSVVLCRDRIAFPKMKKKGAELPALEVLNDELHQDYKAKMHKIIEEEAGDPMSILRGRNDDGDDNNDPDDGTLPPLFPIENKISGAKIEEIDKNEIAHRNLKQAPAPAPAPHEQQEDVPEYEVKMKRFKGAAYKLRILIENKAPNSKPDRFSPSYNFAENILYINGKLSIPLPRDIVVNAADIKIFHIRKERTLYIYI
Nature of the experiment: co-IP; Tap-tagged protein captured from 4 mg of total yeast extract on IgG sepharose in IP buffer (40 mM HEPES-KOH pH 8.0, 100 mM KCl, 150 mM potassium acetate, 1 mM EDTA, 10% glycerol), eluted with TEV protease, SDS-PAGE and western blot; extracts of wild-type or not5Δ cells, with RNaseA where indicated.

A further experiment has as its target Rvb2-TT (S. cerevisiae) (UniProt Q12464). The description is as above.
The target in another experiment is Rvb1-TT (S. cerevisiae) (UniProt Q03940). The description is as above.
In another experiment the target is Not1-TT (S. cerevisiae) (UniProt P25655). The experiment is described as above.
For experiment [2], the target named is T2, LexA-Rpb7 (S. cerevisiae) (UniProt P34087).
T2 sequence: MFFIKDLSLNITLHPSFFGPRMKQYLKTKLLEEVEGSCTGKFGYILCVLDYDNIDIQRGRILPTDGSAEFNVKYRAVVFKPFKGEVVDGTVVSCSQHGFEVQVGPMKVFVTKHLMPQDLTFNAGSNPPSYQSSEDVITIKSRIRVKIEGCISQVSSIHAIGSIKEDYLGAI
Nature of the experiment: two-hybrid; LexA fusion as bait (pLex202), B42 fusions as preys (pJG4-5), reporter strain MY290; serial dilutions spotted on medium selective for the plasmids and indicative of an interaction (-L).

Experiment [3] concerns the target T3, LexA-Rpb4 (S. cerevisiae) (UniProt P20433).
T3 sequence: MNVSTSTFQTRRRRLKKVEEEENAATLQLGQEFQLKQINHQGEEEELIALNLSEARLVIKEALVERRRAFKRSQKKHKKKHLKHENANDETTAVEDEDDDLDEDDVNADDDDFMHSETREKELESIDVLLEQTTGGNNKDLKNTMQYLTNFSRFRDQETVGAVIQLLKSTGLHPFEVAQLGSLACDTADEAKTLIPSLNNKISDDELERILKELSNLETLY
The experiment is described as above.

For another experiment, the target named is Rpb2-TT (S. cerevisiae) (UniProt P08518). Description: co-IP; Tap-tagged protein captured from 4 mg of total yeast extract on IgG sepharose in IP buffer (40 mM HEPES-KOH pH 8.0, 100 mM KCl, 150 mM potassium acetate, 1 mM EDTA, 10% glycerol), eluted with TEV protease, SDS-PAGE and western blot; extracts of wild-type or not5Δ cells, with RNaseA where indicated.

These are yes or no findings as the source states them, for the method shown. For some assays here: Binding seen in cells or lysates may run through a third protein. Some results given as binding are weak or reduced against the parent protein; the word gives no strength. For some assays here: Where a sequence is shown, tags or fusion partners need not be part of it.

The values below come from PMC4207488.

Rpb1 (from UniProt P04050 1-1733): the binding entry (in the experiment with Rpb11-TT (S. cerevisiae); in experiment [1]; in the experiment with Rvb2-TT (S. cerevisiae); with Rvb1-TT (S. cerevisiae)) was “binds” throughout.

In the case of “HA-tagged Prt1 (from UniProt P06103 1-763)”, the binding entry with Not1-TT (S. cerevisiae) is listed as “binds”.

In the case of B42-Nip1 (from UniProt P32497 1-812), the binding result in experiment [2] and in experiment [3] was “binds” in each case.

In the case of “HA-tagged Rpl25 (from UniProt P04456 1-142)”, the binding entry with Rpb2-TT (S. cerevisiae) is reported as “binds”.
